Assay results taken from PubChem BioAssay AID180 (DTP/NCI, 2004).
The list is a part of this screen's results and no random one: it gathers tests that were run many times, whatever their T/C, doses with no T/C, and many T/C values between a quarter and a half above the control. Other doses and runs of a compound stand elsewhere. T/C is the treated group as % of the vehicle group. Schedules are NCI's codes, read here as Q, the interval in days (D) or hours (H), X, the number of doses. Some T/C values are followed by the survivors on the day toxicity was checked, most often the fifth; without a count, all were alive then. Some doses were run more than once; the values are given in rising order. Additions like (4×) give the number of equal values in this list. Some schedule codes hold Z or #, which are not explained here. Some entries give survivors of the animals treated and no T/C: the source files T/C as zero there, which appears to mark a toxic dose or a test without result, not a measured value. Counts of survivors are from the toxicity check (mostly the fifth day) where no day follows; animals may have died later.

Test system: BDF1 mice, Adenocarcinoma 755 s.c., tumor weight T/C
Experiment: NCI In Vivo Anticancer Drug Screen. Data for tumor model Adenocarcinoma 755 (subcutaneous) in B6D2F1 (BDF1) mice
Conditions: T/C endpoint: mean tumor weight, higher T/C = larger tumour; for T/C: evaluated on day 12
In short: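 Values express treated (T) relative to vehicle-dosed control (C) animals, based on survival or tumour size measured after compound treatment of mice bearing a transplanted tumour.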

[1] = dose: 800.0 mg/kg/injection, schedule: Q01DX011 (ip), vehicle: other
[2] = dose: 1000.0 mg/kg/injection, schedule: Q01DX011 (oral), vehicle: other
[3] = dose: 1500.0 mg/kg/injection, schedule: Q01DX011 (oral), vehicle: other
[4] = dose: 2000.0 mg/kg/injection, schedule: Q01DX011 (oral), vehicle: other
[5] = dose: 2500.0 mg/kg/injection, schedule: Q01DX011 (oral), vehicle: other
[6] = dose: 100.0 mg/kg/injection, schedule: Q01DX011 (ip), vehicle: carboxymethylcellulose (CMC)
[7] = dose: 200.0 mg/kg/injection, schedule: Q01DX011 (ip), vehicle: other
[8] = dose: 400.0 mg/kg/injection, schedule: Q01DX011 (ip), vehicle: other
[9] = dose: 240.0 mg/kg/injection, schedule: Q01DX011 (ip), vehicle: carboxymethylcellulose (CMC)
[10] = dose: 125.0 mg/kg/injection, schedule: Q01DX011 (ip), vehicle: methylcellulose (MC)
[11] = dose: 5.0 mg/kg/injection, schedule: Q01DX011 (ip), vehicle: methylcellulose (MC)

SMILES: COB1OB(OC)OB(OC)O1
- T/C (dose: 500.0 mg/kg/injection, schedule: Q## X006 (ip), vehicle: other): 143 % of control
- T/C (dose: 750.0 mg/kg/injection, schedule: Q01DX011 (sc), vehicle: other): 40 (2×) and 87 % of control
- survivor count [1]: 5 of 10
- T/C [2]: 28, 35, 53 [9 of 10 alive], 88 % of control
- survivor count [2]: 6 of 10
- T/C (dose: 1000.0 mg/kg/injection, schedule: Q01DX011 (sc), vehicle: other): 33, 34, 40 % of control
- survivor count (dose: 1500.0 mg/kg/injection, schedule: Q01DX011 (ip), vehicle: other): 4 of 10
- T/C [3]: 17 [9 of 10 alive], 20 [9 of 10 alive], 49 % of control
- survivor count [3]: 2 of 10
- survivor count (dose: 1500.0 mg/kg/injection, schedule: Q#A X022 (oral), vehicle: water): 6 of 10
- survivor count (dose: 1600.0 mg/kg/injection, schedule: Q01DX011 (im), vehicle: other): 1 of 10
- T/C [4]: 4, 7 [9 of 10 alive], 10, 12, 18 % of control [9 of 10 alive]
- survivor count [4]: 0 of 10
- survivor count (dose: 2250.0 mg/kg/injection, schedule: Q02DX006 (ip), vehicle: other): 3 of 10
- T/C [5]: 3 [7 of 10 alive], 4, 7 % of control [9 of 10 alive]
- survivor count [5]: 0 of 10
- survivor count (dose: 2500.0 mg/kg/injection, schedule: Q01DX011 (oral), vehicle: water): 5 of 12
- survivor count (dose: 3000.0 mg/kg/injection, schedule: Q01DX011 (oral), vehicle: other): 0 of 10 and 4 of 10

SMILES: Cc1cc2c(cc1C)NC(C)CC(=O)N2 (stereo unspecified)
- survivor count [6]: 6 of 10
- survivor count [7]: 2 of 10
- survivor count (dose: 400.0 mg/kg/injection, schedule: Q01DX011 (ip), vehicle: carboxymethylcellulose (CMC)): 0 of 10
- survivor count [8]: 0 of 10

SMILES: CS(=O)(=O)c1nc(N)nc2nc[nH]c12
- survivor count (dose: 30.0 mg/kg/injection, schedule: Q01DX011 (ip), vehicle: carboxymethylcellulose (CMC)): 3 of 10

SMILES: Nc1nc(SCc2ccccc2Cl)c2ncn(C3CCCCC3)c2n1
- T/C (dose: 225.0 mg/kg/injection, schedule: Q01DX011 (ip), vehicle: methylcellulose (MC)): 126 % of control

SMILES: CSc1nc(Cl)cc2nc(Cl)cn12
- survivor count (dose: 120.0 mg/kg/injection, schedule: Q01DX011 (ip), vehicle: carboxymethylcellulose (CMC)): 5 of 10
- survivor count [9]: 0 of 10

SMILES: Nc1nc(=S)cc(Nc2ccc(Cl)c(Cl)c2)[nH]1
- survivor count (dose: 62.0 mg/kg/injection, schedule: Q01DX011 (ip), vehicle: methylcellulose (MC)): 6 of 10
- survivor count [10]: 5 of 10

SMILES: Cc1cccc(N=Nc2c(S(=O)(=O)O)cc3cc(NC(=O)Nc4ccc5c(O)c(N=Nc6ccc7cc(S(=O)(=O)O)ccc7c6)c(S(=O)(=O)O)cc5c4)ccc3c2O)c1
- survivor count (dose: 65.0 mg/kg/injection, schedule: Q01DX011 (ip), vehicle: carboxymethylcellulose (CMC)): 6 of 10
- survivor count [6]: 2 of 10
- survivor count (dose: 150.0 mg/kg/injection, schedule: Q01DX011 (ip), vehicle: carboxymethylcellulose (CMC)): 1 of 10

SMILES: C/C=C1\CN(C)[C@H]2Cc3c([nH]c4ccccc34)[C@@H](c3cc4[nH]c5c(c4cc3OC)CCN3C[C@H]4C[C@H](CC)[C@H]3[C@@]5(C(=O)OC)C4)C[C@H]1C2C(=O)OC (stereo partly specified)
- survivor count (dose: 60.0 mg/kg/injection, schedule: Q01DX011 (ip), vehicle: water): 2 of 12

SMILES: CC(Sc1nc(N)nc2nc[nH]c12)C(=O)O (stereo unspecified)
- survivor count (dose: 600.0 mg/kg/injection, schedule: Q01DX011 (ip), vehicle: saline): 6 of 10

SMILES: c1nc(N2CC2)c2ncn(C3CCCCC3)c2n1
- T/C (dose: 25.0 mg/kg/injection, schedule: Q01DX011 (ip), vehicle: carboxymethylcellulose (CMC)): 137 % of control
- survivor count [6]: 0 of 10

SMILES: C[C@]12CC[C@H](O)CC1=CC[C@@H]1[C@@H]2[C@@H](O)C[C@@]2(C)[C@H]1CC[C@]2(C)O
- T/C (dose: 25.0 mg/kg/injection, schedule: Q01DX011 (sc), vehicle: steroid suspending solution): 137 % of control

SMILES: CCN(CC)c1ccc2cc3ccc(=[N+](CC)CC)cc-3oc2c1
- T/C (dose: 2.55 mg/kg/injection, schedule: Q01DX011 (ip), vehicle: carboxymethylcellulose (CMC)): 125 [8 of 10 alive] and 127 % of control
- T/C (dose: 3.4 mg/kg/injection, schedule: Q01DX011 (ip), vehicle: carboxymethylcellulose (CMC)): 138 % of control
- survivor count [11]: 3 of 10
- T/C (dose: 5.1 mg/kg/injection, schedule: Q01DX011 (ip), vehicle: carboxymethylcellulose (CMC)): 127 % of control [7 of 10 alive]
- survivor count (dose: 15.0 mg/kg/injection, schedule: Q01DX011 (ip), vehicle: other): 4 of 10

SMILES: COc1ccc(-c2c(C)c(C(=O)O)nc(-c3ccc(C(=O)O)c(C(=O)O)n3)c2N)c(O)c1OC
- T/C (dose: 400.0 mg/kg/injection, schedule: Q01DX011 (ip), vehicle: water): 129 % of control [8 of 10 alive]
- survivor count (dose: 500.0 mg/kg/injection, schedule: Q01DX011 (ip), vehicle: water): 2 of 10

SMILES: Cc1nc(C(N)=O)nc2ccccc12
- survivor count (dose: 62.5 mg/kg/injection, schedule: Q01DX011 (ip), vehicle: methylcellulose (MC)): 3 of 10
- survivor count [10]: 6 of 10
- survivor count (dose: 250.0 mg/kg/injection, schedule: Q01DX011 (ip), vehicle: methylcellulose (MC)): 3 of 10

SMILES: Nc1nc2c(nc(Br)n2C2OC(CO)C(O)C2O)c(=O)[nH]1 (stereo unspecified)
- survivor count [9]: 5 of 10

SMILES: CCSc1ncc(Br)c(Sc2nc(N)nc3nc[nH]c23)n1
- survivor count (dose: 16.0 mg/kg/injection, schedule: Q01DX011 (ip), vehicle: carboxymethylcellulose (CMC)): 0 of 10

SMILES: COC(=O)C1=COC(C)C2CN3CCc4c([nH]c5cc(OC)ccc45)C3CC12 (stereo unspecified)
- survivor count (dose: 175.0 mg/kg/injection, schedule: Q01DX011 (ip), vehicle: other): 5 of 10

SMILES: C[C@H]1C(=O)O[C@@H]2CCN3CC=C(COC(=O)[C@](C)(O)[C@@]1(C)O)[C@H]23
- survivor count (dose: 180.0 mg/kg/injection, schedule: Q01DX011 (ip), vehicle: methylcellulose (MC)): 2 of 10

SMILES: Cn1cnc([N+](=O)[O-])c1Sc1nc(N)nc2nc[nH]c12
- survivor count [11]: 6 of 10
- survivor count (dose: 10.0 mg/kg/injection, schedule: Q01DX011 (ip), vehicle: methylcellulose (MC)): 4 of 10
- survivor count (dose: 15.0 mg/kg/injection, schedule: Q01DX011 (ip), vehicle: methylcellulose (MC)): 1 of 10
- survivor count (dose: 20.0 mg/kg/injection, schedule: Q01DX011 (ip), vehicle: saline): 4 of 10
- survivor count (dose: 40.0 mg/kg/injection, schedule: Q01DX011 (ip), vehicle: saline): 4 of 10

SMILES: CCOC(=O)C1=C(C)NC(C)=C(C(=O)OCC)C1C
- survivor count (dose: 500.0 mg/kg/injection, schedule: Q01DX011 (ip), vehicle: other): 1 of 10

SMILES: [N-]=[N+]=CC(=O)NCC(=O)NN
- T/C (dose: 125.0 mg/kg/injection, schedule: Q01DX011 (ip), vehicle: saline): 128 % of control

SMILES: CCCC(=O)OCC1OC(n2cnc3c(=S)nc[nH]c32)C(OC(=O)CCC)C1OC(=O)CCC (stereo unspecified)
- survivor count (dose: 100.0 mg/kg/injection, schedule: Q01DX011 (ip), vehicle: other): 0 of 10
- survivor count [7]: 0 of 10
- survivor count [8]: 0 of 10
- survivor count [1]: 0 of 10
